Test results: patent US11192890B2, “FGFR kinase inhibitors and pharmaceutical uses” (AUCKLAND UNISERVICES LIMITED, priority 2017, dated 2021)
For at least one compound, name, drawing or mass did not settle the structure.

Test system: FGFR1 in H520 cells (phospho-ERK1/2)
Experiment: Drug washout Western blot assay, H520 cells
Format: cell-based
Conditions: 30 min exposure, 100 nM, with and without washout

CNc1ncc2cc(-c3c(Cl)c(OC)cc(OC)c3Cl)c(=O)n(C3CCN(C(=O)/C=C/CN(C)C)CC3)c2n1 [Compound 132, (E)-6-(2,6-dichloro-3,5-dimethoxyphenyl)-8-(1-(4-(dimethylamino)but-2-enoyl)piperidin-4-yl)-2-(methylamino)pyrido[2,3-d]pyrimidin-7(8H)-one]
reversible or irreversible inhibition of FGFR1 in cells: potent irreversible inhibitors
